From the supplement of paper PMC3334620
Whole data set: some 33,000 sequences, median “E-score (-0.5 to 0.5)” near -0.0059, cut for the highest 2% near 0.26. The list shows a part of the results.

Molecular target: T1, Cin5 (UniProt P40917)
T1 sequence: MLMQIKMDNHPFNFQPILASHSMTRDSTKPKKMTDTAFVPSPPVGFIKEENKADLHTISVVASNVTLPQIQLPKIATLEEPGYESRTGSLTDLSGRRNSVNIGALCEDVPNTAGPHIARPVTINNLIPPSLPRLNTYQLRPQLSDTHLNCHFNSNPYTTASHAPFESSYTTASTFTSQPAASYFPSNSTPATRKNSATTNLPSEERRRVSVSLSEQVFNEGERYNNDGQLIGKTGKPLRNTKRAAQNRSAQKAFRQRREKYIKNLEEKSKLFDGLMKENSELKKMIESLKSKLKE
Test: PBM E-score (8-mer binding enrichment) (E-score (-0.5 to 0.5)); higher = stronger / more preferred TF binding
Settings: protein concentration: 100 nM; construct: GST-full length
Method: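 Universal 'all 10-mer' protein binding microarrays (Agilent AMADID 015681) probed with GST-tagged S. cerevisiae TFs (full-length or DBD) made by in vitro transcription/translation (PURExpress), about 100-200 nM. Bound TF was detected with fluorescent anti-GST. Each ungapped 8-mer (which stands for itself and its reverse complement) is scored by the PBM enrichment score (E-score), a modified Wilcoxon-Mann-Whitney statistic from -0.5 to +0.5, computed with the Universal PBM Analysis Suite. Scale: above 0.35 generally sequence-specific binding.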

| Sequence | PBM E-score |
| --- | --- |
| GCGTGTAA | -0.057 |
| ACGGTCCG | -0.279 |
| GGGCACAA | -0.0694 |
| GTCGAAGA | 0.0765 |
| GGGAGAGA | -0.253 |
| CTCTAGAA | -0.143 |
| AGCTTTAG | -0.134 |
| CCTTGGGC | -0.258 |
| TCATATAA | 0.197 |
| GTACATCA | 0.103 |
| TAAATTCA | 0.0481 |
| CCACCAGA | 0.061 |
| AGCTGCCT | -0.214 |
| ATCGAATA | 0.0729 |
| CAATCCAC | 0.0216 |
| TAAGCTGA | 0.267 |
| ACCGTGTA | 0.0936 |
| AACCGGTA | -0.00751 |
| TAACCTAA | 0.0636 |
| CTCACCAC | -0.115 |
| CTGAAGAA | -0.0731 |
| GAATTGGC | 0.0496 |
| ATAAACAT | 0.185 |
| GTATGCAA | 0.143 |
| CTGTAAGA | -0.00022 |

| Sequence | PBM E-score |
| --- | --- |
| CCGTCTAA | 0.0286 |
| AAGGCGAG | -0.115 |
| GTTGAAAA | 0.004 |
| ATGGCCAC | -0.19 |
| TAAGAGGA | -0.0151 |
| ATGAAAAT | 0.165 |
| AAAATTAC | 0.174 |
| CAGTTCAG | 0.058 |
| CGTCCCAA | -0.0522 |
| CGCCGCGA | 0.125 |
| GTTAACTA | 0.205 |
| CTCACCCC | -0.128 |
| CATCTCCC | -0.0154 |
| GCAAAAAC | 0.0399 |
| AGGCCATG | 0.0399 |
| ACCTATAG | 0.0455 |
| CTCAAGAC | -0.175 |
| TCAGTAAA | 0.11 |
| CCTCATAC | 0.101 |
| AGTGACTA | -0.0808 |
| ACAGATGC | -0.0868 |
| AACCGACT | -0.0664 |
| CGACTGCA | -0.0752 |
| AACAAACC | 0.144 |
| GCGGTCCC | -0.247 |

| Sequence | PBM E-score |
| --- | --- |
| TCTCTACA | -0.00517 |
| CAGAGAAC | -0.117 |
| TTAGGGAA | -0.0213 |
| AGGCACGA | -0.0654 |
| ATGAAAGC | 0.134 |
| CCTCGATA | 0.127 |
| AGTCTGGA | 0.041 |
| AACAAACG | 0.0102 |
| GCTTCCTA | -0.0299 |
| ACGTGCCC | -0.0588 |
| GCCGCCCA | -0.155 |
| GACTGCCA | 0.00758 |
| AATGAAGG | 0.0467 |
| AGTCAAAG | -0.0858 |
| ACGCACAA | 0.109 |
| CCTAGAGC | -0.152 |
| CACGCCTA | -0.19 |
| CGGATTAC | 0.122 |
| GTTTCACA | 0.0881 |
| CGTTGGAG | -0.105 |
| GGCTTTCA | 0.0353 |
| CAGATTTC | 0.0552 |
| ACAGTTTA | -0.0529 |
| GAGCACCC | -0.229 |
| CAAGTCAC | -0.00125 |

Exported field by field: part of the list above
GACTGCCA
  PBM E-score = 0.00758
AATGAAGG
  PBM E-score = 0.0467

Later entries:

| Sequence | PBM E-score |
| --- | --- |
| GGGGATAC | -0.0148 |
| CGCAACGC | -0.0239 |
| GCGCACAC | -0.00911 |
| GTCAGGGA | -0.114 |
| GCTCGGTA | -0.138 |
| AGCATAAC | 0.0567 |
| TACGGATA | 0.0313 |
| ATTGACTC | 0.11 |
| ATGTTCGA | -0.0359 |
| ACGTCCTC | -0.114 |
| AGATACGC | 0.0106 |
| CAAAATAA | 0.203 |
| ATCTGAGA | -0.00608 |
| CACATATC | 0.143 |
| GATGACCA | -0.00607 |
| ATTCTACC | 0.0412 |
| CGACTGGC | -0.111 |
| ATACAAGC | 0.254 |
| ACTTTATA | 0.214 |
| CAGGGTGG | -0.151 |
| CTGTTGAC | -0.113 |
| ACATGTGA | -0.0516 |
| AATACACC | 0.182 |
| CGACCTAG | 0.071 |
| GATCATAC | 0.0203 |

| Sequence | PBM E-score |
| --- | --- |
| AGGAATGG | -0.0178 |
| AGACTTCC | -0.171 |
| CTTTGTCA | 0.114 |
| ACCGCAAG | 0.00418 |
| GCGCTTCC | -0.0888 |
| GCTTGAAA | 0.0153 |
| ATAACGTC | 0.0919 |
| TCGCTTCA | -0.131 |
| GGCAGACA | -0.165 |
| GCCCCAAA | -0.106 |
| ACGATGTG | 0.0576 |
| TCCTTCAA | -0.0474 |
| TCCATCCA | -0.0186 |
| AGCTACGA | -0.0408 |
| CATTCTCC | -0.0533 |
| CTCAGCCC | -0.258 |
| AAGGCGGG | -0.193 |
| GTCGCTCA | -0.0802 |
| CCTAGTCC | -0.293 |
| TCTGTACA | 0.101 |
| AGATCTGA | 0.0167 |
| CGATTTTC | 0.146 |
| ACGCGTCG | 0.121 |
| CGCGTGTA | 0.0559 |
| AGTATTGA | 0.189 |

| Sequence | PBM E-score |
| --- | --- |
| CCTCTGCG | -0.21 |
| AAACGACA | 0.168 |
| ACGTAAAG | 0.191 |
| GATCAGGA | -0.0332 |
| GATAGATA | 0.0426 |
| AAGATGGT | 0.0214 |
| ACAGGACT | -0.139 |
| CGAATTGA | -0.0469 |
| GATTGCAC | 0.119 |
| CTCCACCC | -0.275 |
| ACATATAG | 0.153 |
| AAGGAACT | 0.0326 |
| TGTGAAAA | 0.0454 |
| AATGACGC | 0.0838 |
| GACGCGCA | 0.00622 |
| CGACGCGC | -0.0356 |
| CGAACCGC | 0.0258 |
| TATCATAA | 0.272 |
| AGTGAGCA | -0.0506 |
| ATCGAGAG | 0.0415 |
| AGGGGTAA | -0.0717 |
| AACCGGGG | -0.165 |
| AACACCGG | 0.0101 |
| CGAGGCGC | -0.063 |
| CTCTGGGC | -0.136 |

| Sequence | PBM E-score |
| --- | --- |
| GCCTTAAC | -0.0683 |
| CCTGTAGC | -0.281 |
| CTTGTGCA | 0.155 |
| AGAGCGTA | 0.0172 |
| TACGATGA | 0.12 |
| ACCCTACC | -0.0598 |
| CCACTGAC | -0.213 |
| CCGTTTCG | 0.0547 |
| ACAGTTCG | 0.134 |
| AATTCGAC | -0.326 |
| CGCACCGA | -0.0487 |
| GATATCAC | 0.0843 |
| CGTTGCAC | -0.0719 |
| TGGACAAA | 0.0596 |
| CACTGTCG | -0.125 |
| GGCCAGCC | -0.277 |
| CGAAGGAC | -0.185 |
| ACAAGCTC | -0.135 |
| TTTGAAAA | 0.0873 |
| ATTTATTA | 0.306 |
| ATCTCCAT | 0.0751 |
| AATTTGAG | -0.0611 |

An excerpt taken from the entries so far:

| Sequence | PBM E-score |
| --- | --- |
| TACGATGA | 0.12 |
| ACCCTACC | -0.0598 |
| CCACTGAC | -0.213 |
| CCGTTTCG | 0.0547 |
| ACAGTTCG | 0.134 |
